Data on 42 sequences can be found in article PMC7819943, “Rice protein-binding microarrays: a tool to detect cis-acting elements near promoter regions in rice”.

The list shows a part of the results.

The test has as its target T1, OsSMF1 (Oryza sativa, UniProt Q6ZLB0 1-436).
T1 sequence: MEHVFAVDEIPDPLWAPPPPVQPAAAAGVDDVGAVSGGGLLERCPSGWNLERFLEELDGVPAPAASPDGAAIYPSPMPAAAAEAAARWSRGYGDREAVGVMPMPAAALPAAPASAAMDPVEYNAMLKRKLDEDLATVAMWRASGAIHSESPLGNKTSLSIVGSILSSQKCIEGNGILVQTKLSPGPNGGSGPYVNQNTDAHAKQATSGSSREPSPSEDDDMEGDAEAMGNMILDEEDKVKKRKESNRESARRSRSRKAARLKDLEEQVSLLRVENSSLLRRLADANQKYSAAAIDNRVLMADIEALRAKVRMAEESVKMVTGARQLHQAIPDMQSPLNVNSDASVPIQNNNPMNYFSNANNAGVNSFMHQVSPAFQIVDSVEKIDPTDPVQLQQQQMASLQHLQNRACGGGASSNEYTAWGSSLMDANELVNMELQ
In words: protein-binding microarray (RPBM); PBS, 2% BSA, 51.3 ng/ul salmon testes DNA, 50 uM zinc acetate, 200 nM TF, 25 C, 1 h; high values mean tight binding. Conditions: protein: recombinant; tags: N-terminal polyhistidine and DsRed monomer fusion (pET32a); chain copies: 2; label: CyDye5-dUTP incorporated in the synthesized complementary strand; 3' TTTTT single-stranded linker to array surface; dsDNA, one strand shown. The gist of the method:
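Binding signal here means per-feature fluorescence intensity in arbitrary units. The values were read on an Axon 4000B scanner after a custom Agilent array, double-stranded by primer extension with Cy5-dUTP, was incubated with 200 nM protein at 25 °C for 1 h in PBS with 2% BSA, salmon testes DNA and 50 µM zinc acetate, then washed. The proteins were transcription factors with an N-terminal polyhistidine tag and DsRed, expressed in E. coli BL21-CodonPlus and purified on Ni–NTA.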
Regarding “GTGGCCGTGTCATTGTCACTGATTCATGTGATGCTGTTGACGGAGTCACCTAGTGCAG”, the binding signal was 4350 fluorescence intensity (a.u.).

Turning to “CCCACGAGCACTCGCCACGTACATACTCCCTACTTCCCTACGGAGTCACCTAGTGCAG”, the binding signal is 7610 fluorescence intensity (a.u.).

As for “AAGTTCGCCACGCACTTGCCAATTAAATTTGCCATGGCCTCGGAGTCACCTAGTGCAG”, the binding signal was 5770 fluorescence intensity (a.u.).

Regarding “ATTTCTCCAGTCACGTTACTGCTTACTACTGCTTACTACTCGGAGTCACCTAGTGCAG”, the binding signal is 4240 fluorescence intensity (a.u.).

As to “CCGGCCTAGTCTTCGAAGATGCTCATAAGGGTAGAATTTGCGGAGTCACCTAGTGCAG”, the binding signal was 3330 fluorescence intensity (a.u.).

Regarding “TTTCTTAACTCGACACGCAATGTATTGTTATTTACGATTCCGGAGTCACCTAGTGCAG”, the binding signal is 3740 fluorescence intensity (a.u.).

With “AGCTGAGCTGCCACAAATCACACGACACATATTGCTCCTTCGGAGTCACCTAGTGCAG”, the binding signal is 3250 fluorescence intensity (a.u.).

As for “GCAACCACCGTGACGCCGCCGCGCGCCCACTGGAACACGTCGGAGTCACCTAGTGCAG”, the binding signal was 5010 fluorescence intensity (a.u.).

As for “GCGTGTGACTATAATTACGTGGCTTTCCTTCCTGAAGCCGCGGAGTCACCTAGTGCAG”, the binding signal is 12300 fluorescence intensity (a.u.).

In the case of “CAGTGCACTCGGTGCTGGCTGTTTTGGCCAATCGGTGTTGCGGAGTCACCTAGTGCAG”, the binding signal is 3320 fluorescence intensity (a.u.).

As for “CCACACTTACTCAGCCGCCACGTAGACCAAAACCGGGGTCCGGAGTCACCTAGTGCAG”, the binding signal was 21500 fluorescence intensity (a.u.).

Regarding “GCCCGCGCGAAATGACGCTACTACCCTCGTTGCTCTTATCCGGAGTCACCTAGTGCAG”, the binding signal is 5480 fluorescence intensity (a.u.).

Consider “GCAGCCGCCGCACTGTAGTACGTGGTAGTAGTACTAACCACGGAGTCACCTAGTGCAG”, for which the binding signal is 4180 fluorescence intensity (a.u.).

As to “TTGGTGACAAATCCAGCTCGCTCTTGGGACCGAGAGTCCACGGAGTCACCTAGTGCAG”, the binding signal is 27800 fluorescence intensity (a.u.).

On to “GGATTAGGGATGTCATACTGATTCAGCATAAAGTTGAGCGCGGAGTCACCTAGTGCAG”, for which the binding signal is 3970 fluorescence intensity (a.u.).

Regarding “TAAATTTTAAAATTCAAAGTTTTGCTGTGACTGATGAGTCCGGAGTCACCTAGTGCAG”, the binding signal is 3910 fluorescence intensity (a.u.).

“CTAAGTACCCTGACATTACCAACGTTCATCTCCACGGCACCGGAGTCACCTAGTGCAG”: the binding signal is 3560 fluorescence intensity (a.u.).

For “CTCAAACGCGCGCGCGAGAGGAGGGGAGGGGTTTGGTTTGCGGAGTCACCTAGTGCAG”, the binding signal is 3420 fluorescence intensity (a.u.).

For “GGACGAAGTCCATGCGGCGCTCGCGCTCCTCCTCCTGCAGCGGAGTCACCTAGTGCAG”, the binding signal is 4300 fluorescence intensity (a.u.).

Regarding “ATTCAACCCAAGCCCAGTGTCACCGCGTACGTCACATTTACGGAGTCACCTAGTGCAG”, the binding signal is 4260 fluorescence intensity (a.u.).

Regarding “CTGGATATGACACATCCTAGTACTACGAAACTGGATATACCGGAGTCACCTAGTGCAG”, the binding signal is 5350 fluorescence intensity (a.u.).

Regarding “TACCGTATCCTCCTCGTCACACCCTACCCTACGCCCGGATCGGAGTCACCTAGTGCAG”, the binding signal is 4250 fluorescence intensity (a.u.).

With “GAAATTTAAAATAAAATCGAATATTGAGTCAGAGTAAACACGGAGTCACCTAGTGCAG”, the binding signal is 3800 fluorescence intensity (a.u.).

On to “TGAACTAGGCGGCGGTGGGCCCACCGCTTCCATTCTTCTCCGGAGTCACCTAGTGCAG”, for which the binding signal is 3300 fluorescence intensity (a.u.).

For the sequence “ACAGGGGCAGGGGTCATGTGGTGGAGGTAATCAATTAATCCGGAGTCACCTAGTGCAG”, the binding signal is 3660 fluorescence intensity (a.u.).

With “CATGAGCGCCACATTGCCATGAAATTGATAACATGATTTGCGGAGTCACCTAGTGCAG”, the binding signal is 3360 fluorescence intensity (a.u.).

With “GACTTGCGGCCACGGAGTCAGGGCCGTGCACGTGGAGGTACGGAGTCACCTAGTGCAG”, the binding signal was 4910 fluorescence intensity (a.u.).

As to “TTGGCCGGTAACGCGTCATGACTCATGAGCTACTGGACTTCGGAGTCACCTAGTGCAG”, the binding signal was 9990 fluorescence intensity (a.u.).

Regarding “GGAAGATGACGCGTACGCCACACGAACACGATCCGCCCGTCGGAGTCACCTAGTGCAG”, the binding signal is 5740 fluorescence intensity (a.u.).

For the sequence “CCACCAAAACCACATGCGACCACGCGAGACCCATGTACCGCGGAGTCACCTAGTGCAG”, the binding signal is 3390 fluorescence intensity (a.u.).

In the case of “CGTTTCAGATTTGTTTACGTCACCATAAGTAAAGTTTTCTCGGAGTCACCTAGTGCAG”, the binding signal is 5960 fluorescence intensity (a.u.).

With “ACTTCCTCAACATGTTAGCATTATTTCGTTCTGCTGTATACGGAGTCACCTAGTGCAG”, the binding signal is 20900 fluorescence intensity (a.u.).

For “GGCGTTCTGCCGCCTGGCGCCGCTCGTCACGTACGAGGACCGGAGTCACCTAGTGCAG”, the binding signal is 3350 fluorescence intensity (a.u.).

“AGGCCGAAATCCCGGGCTGTTCAGGTGTGTCAGTATATGGCGGAGTCACCTAGTGCAG”: the binding signal is 3150 fluorescence intensity (a.u.).

Consider “AACTGACTCATACACGGATGACGTACCAAAATACCGGCAACGGAGTCACCTAGTGCAG”, for which the binding signal is 6650 fluorescence intensity (a.u.).

As for “TTAAGTGAAAACATGAGTCTAGCCCTAGCCCAATGTGAAACGGAGTCACCTAGTGCAG”, the binding signal was 36300 fluorescence intensity (a.u.).

Consider “TACAGGACTATGTGTGCGTGCTACAGTGTTCTGGTCAAATCGGAGTCACCTAGTGCAG”, for which the binding signal was 4360 fluorescence intensity (a.u.).

Consider “CAGTTTCTGTCGTAGTGGAGCGGAAACCTGTCACCGAGAGCGGAGTCACCTAGTGCAG”, for which the binding signal was 3240 fluorescence intensity (a.u.).

Turning to “CTGGACATGTGACACATCATAGTACCATGAATGTAGTACTCGGAGTCACCTAGTGCAG”, the binding signal is 4930 fluorescence intensity (a.u.).

Consider “GTTTAGGACTTTAACACACGTGGTTGGTTTCACCACAAGACGGAGTCACCTAGTGCAG”, for which the binding signal is 3300 fluorescence intensity (a.u.).

“TCTCAGTATAAAAGCCCGCGACATCACGCTATATCTGCTACGGAGTCACCTAGTGCAG”: the binding signal was 4050 fluorescence intensity (a.u.).

Turning to “TCTTGATGATGTGGAGTTTATGGAAACTATGTCTAGTGTTCGGAGTCACCTAGTGCAG”, the binding signal is 7560 fluorescence intensity (a.u.).
